One data set has as its system HCT116. Nature of the data set: MTS antiproliferative assay, HCT116 (with or without added metal ions). The class given is cell-based, human. The note with it: versus NHDF. The protocol: (§1) The cells were seeded in 96-well plates (Nunc) at a density of 3,500 cells/well (HCT116 and MCF-7) and 3,000 cells/well (NHDF) and incubated at 37° C for 24 h. The assay was performed following a 96 h incubation with varying concentrations of the compounds that were being tested. Then, 20 µL of CellTiter 96® AQueous One Solution-MTS (Promega) was added to each well (with 100 µL DMEM without phenol red) and incubated for 1 h at 37° C. The optical densities of the samples were analyzed at 490 nm using a multi-plate reader (Synergy 4, Bio Tek). Results were expressed as a percentage of the control and calculated as the inhibitory concentration (IC50) values (using GraphPad Prism 5). The IC50 parameter was defined as the compound concentration that was necessary to reduce the proliferation of cells to 50% of the untreated control. Each individual compound was tested in triplicate in a single experiment with each experiment being repeated three or four times.
(§2) The HCT116 and MCF-7 cells were seeded in 96-well plates (Nunc) at a density of 3,500 cells/well and incubated at 37° C for 24 h. The MTS assay was performed following a 96 h incubation with varying concentrations of the tested compounds. Additionally, a 20 µM solution of CuSO4, FeSO4 or FeCl3 was added into wells with the tested compounds. The results were expressed as a percentage of the control and calculated as the inhibitory concentration (IC50) values using GraphPad Prism 5. Each individual compound was tested in triplicate in a single experiment with each experiment being repeated three times.
(Tetrazolium assays rely on reduction of a dye to a coloured formazan, in cell work by metabolically active cells.)

For a further data set, the system named is MCF-7. In words: MTS antiproliferative assay, MCF-7 (with or without added metal ions). The class given is cell-based, human. As to conditions: versus NHDF. Here is the method: as §1, §2

Turning to `S=C(NN=Cc1ccc2ccccc2n1)N1CCN(c2cnccn2)CC1` [Compound 1a], the “Selectivity index, calculated for HCT116” value in the data set on HCT116 was 107.6. Also, the “Selectivity index, calculated for MCF-7” value in the data set on MCF-7 is recorded as 43.1. For `FC(F)(F)c1cnc(N2CCN(C(=S)NN=Cc3ccc4ccccc4n3)CC2)c(Cl)c1` [Compound 1c], the “Selectivity index, calculated for HCT116” value with HCT116 is reported as 236.6. For the molecule `Oc1cccc2ccc(C=NNC(=S)N3CCN(c4cnccn4)CC3)nc12` [Compound 2b], in the data set on HCT116, the “Selectivity index, calculated for HCT116” value was 240.4. Also, the “Selectivity index, calculated for MCF-7” value with MCF-7 was 376.7. For `S=C(NN=C(c1ccccn1)c1ccccn1)N1CCN(c2ccccc2)CC1` [Compound 3a] the same measures were 2.1 and 0.1. For the molecule `S=C(NN=C(c1ccccn1)c1ccccn1)N1CCN(c2ccccn2)CC1` [Compound 3b], the “Selectivity index, calculated for HCT116” value with HCT116 is on record as 77.7. Also, the “Selectivity index, calculated for MCF-7” value in the data set on MCF-7 was 39.0. For `S=C(NN=C(c1ccccn1)c1ccccn1)N1CCN(c2cnccn2)CC1` [Compound 3c] the same measures were 0.4 and 0.5.

On to `Oc1cccc2ccc(C=NNC(=S)N3CCOCC3)nc12` [Compound 2a], for which the “Selectivity index, calculated for MCF-7” value with MCF-7 is 978.8.

The values are drawn from publication PMC5915149, “The role of oxidative stress in activity of anticancer thiosemicarbazones” (Oncotarget, 2018).
